These are yes or no findings as the source states them, for the method shown. Some results given as binding are weak or reduced against the parent protein; the word gives no strength. Where a sequence is shown, tags or fusion partners need not be part of it.
Target: T1, his-Hth (Homothorax) (Drosophila) (UniProt O46339)
T1 sequence: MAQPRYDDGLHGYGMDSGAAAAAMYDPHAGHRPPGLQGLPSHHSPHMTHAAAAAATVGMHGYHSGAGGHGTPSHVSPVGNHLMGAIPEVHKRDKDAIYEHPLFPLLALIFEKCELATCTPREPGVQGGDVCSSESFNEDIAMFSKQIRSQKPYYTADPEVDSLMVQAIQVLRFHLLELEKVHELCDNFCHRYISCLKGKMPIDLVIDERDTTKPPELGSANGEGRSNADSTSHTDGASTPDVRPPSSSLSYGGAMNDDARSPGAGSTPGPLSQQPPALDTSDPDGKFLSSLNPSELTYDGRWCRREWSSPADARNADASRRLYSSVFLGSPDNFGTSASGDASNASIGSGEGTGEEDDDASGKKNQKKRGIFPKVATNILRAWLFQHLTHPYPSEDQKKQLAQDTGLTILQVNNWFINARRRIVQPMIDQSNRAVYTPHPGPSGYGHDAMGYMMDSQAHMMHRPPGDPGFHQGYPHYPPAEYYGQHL
Experiment: co-purification; heterodimers purified from BL21 cells as previously described, one subunit His-tagged; confirmed by SDS-PAGE and Coomassie blue staining

B1: untagged Exd (Extradenticle) (protein, UniProt P40427 1-376)
chain: MEDPNRMLAHTGGMMAPQGYGLSGQDDGQNAGSENEVRKQKDIGEILQQIMSISEQSLDEAQARKHTLNCHRMKPALFSVLCEIKEKTVLSIRNTQEEEPPDPQLMRLDNMLIAEGVAGPEKGGGGAAAASAAAASQGGSLSIDGADNAIEHSDYRAKLAQIRQIYHQELEKYEQACNEFTTHVMNLLREQSRTRPITPKEIERMVQIIHKKFSSIQMQLKQSTCEAVMILRSRFLDARRKRRNFSKQASEILNEYFYSHLSNPYPSEEAKEELARKCGITVSQVSNWFGNKRIRYKKNIGKAQEEANLYAAKKAAGASPYSMAGPPSGTTTPMMSPAPPQDSMGYPMGSGGYDQQQPYDNSMGGYDPNLHQDLSP
For B1, the binding was “binds”.

— PMC4825978
